Laboratory results taken from publication PMC8726484.

The chains behind the UniProt entries cited, without tags or fusion partners.
UniProt Q923J1: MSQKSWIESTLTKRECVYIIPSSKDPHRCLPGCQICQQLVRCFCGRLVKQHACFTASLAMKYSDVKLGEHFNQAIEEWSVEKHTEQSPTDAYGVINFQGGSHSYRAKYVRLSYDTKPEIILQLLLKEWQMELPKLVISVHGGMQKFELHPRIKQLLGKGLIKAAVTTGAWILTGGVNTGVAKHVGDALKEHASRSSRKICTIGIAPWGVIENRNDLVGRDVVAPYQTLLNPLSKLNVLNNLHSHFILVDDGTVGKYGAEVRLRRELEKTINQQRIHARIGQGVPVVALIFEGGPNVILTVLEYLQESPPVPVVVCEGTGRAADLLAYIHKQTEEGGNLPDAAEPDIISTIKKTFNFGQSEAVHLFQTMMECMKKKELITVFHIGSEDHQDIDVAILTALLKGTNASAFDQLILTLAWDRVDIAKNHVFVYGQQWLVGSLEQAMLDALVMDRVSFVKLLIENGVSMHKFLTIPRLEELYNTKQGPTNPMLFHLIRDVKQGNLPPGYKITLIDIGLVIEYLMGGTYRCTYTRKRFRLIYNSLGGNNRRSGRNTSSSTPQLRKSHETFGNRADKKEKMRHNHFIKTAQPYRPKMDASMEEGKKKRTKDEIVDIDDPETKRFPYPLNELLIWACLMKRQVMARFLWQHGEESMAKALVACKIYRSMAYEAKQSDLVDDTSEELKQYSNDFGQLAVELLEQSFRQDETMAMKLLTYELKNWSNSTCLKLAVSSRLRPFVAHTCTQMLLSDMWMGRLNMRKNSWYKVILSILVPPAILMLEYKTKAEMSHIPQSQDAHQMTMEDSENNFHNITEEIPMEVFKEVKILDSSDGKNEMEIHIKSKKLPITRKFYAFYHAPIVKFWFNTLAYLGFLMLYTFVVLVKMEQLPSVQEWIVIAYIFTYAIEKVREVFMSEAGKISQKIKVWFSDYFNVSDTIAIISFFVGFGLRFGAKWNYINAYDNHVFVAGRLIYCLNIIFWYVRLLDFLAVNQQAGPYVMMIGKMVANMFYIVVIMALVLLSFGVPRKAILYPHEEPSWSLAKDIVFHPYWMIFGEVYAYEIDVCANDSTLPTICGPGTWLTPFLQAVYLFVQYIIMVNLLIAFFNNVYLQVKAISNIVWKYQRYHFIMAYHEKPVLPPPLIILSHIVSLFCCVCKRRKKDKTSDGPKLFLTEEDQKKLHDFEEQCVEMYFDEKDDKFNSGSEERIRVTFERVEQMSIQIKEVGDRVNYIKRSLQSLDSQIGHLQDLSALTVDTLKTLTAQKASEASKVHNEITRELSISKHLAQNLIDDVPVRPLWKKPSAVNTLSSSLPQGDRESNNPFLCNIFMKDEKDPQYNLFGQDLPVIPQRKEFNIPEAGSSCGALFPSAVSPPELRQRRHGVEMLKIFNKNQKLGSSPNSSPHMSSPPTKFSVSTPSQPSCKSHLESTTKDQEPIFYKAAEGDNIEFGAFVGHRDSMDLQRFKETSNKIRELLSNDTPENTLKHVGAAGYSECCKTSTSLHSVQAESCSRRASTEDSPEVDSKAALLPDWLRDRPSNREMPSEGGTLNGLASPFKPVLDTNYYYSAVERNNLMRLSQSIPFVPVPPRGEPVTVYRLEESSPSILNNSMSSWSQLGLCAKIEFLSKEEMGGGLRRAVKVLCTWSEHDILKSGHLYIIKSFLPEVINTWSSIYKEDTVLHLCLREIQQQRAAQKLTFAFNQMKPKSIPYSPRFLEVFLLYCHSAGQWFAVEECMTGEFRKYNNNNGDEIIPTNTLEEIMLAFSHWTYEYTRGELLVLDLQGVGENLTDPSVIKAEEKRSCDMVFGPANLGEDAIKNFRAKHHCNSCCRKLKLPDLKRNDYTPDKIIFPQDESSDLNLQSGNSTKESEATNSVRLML

B1: native CNNM3 (endogenous, human cell lines) (protein, UniProt Q8NE01 1-707)
chain: MAAAVAAAGRLGWLFAALCLGNAAGEAAPGPRVLGFCLEEDGAAGAGWVRGGAARDTPDATFLLRLFGPGFANSSWSWVAPEGAGCREEAASPAGEWRALLRLRLRAEAVRPHSALLAVRVEPGGGAAEEAAPPWALGLGAAGLLALAALARGLQLSALALAPAEVQVLRESGSEAERAAARRLEPARRWAGCALGALLLLASLAQAALAVLLYRAAGQRAVPAVLGSAGLVFLVGEVVPAAVSGRWTLALAPRALGLSRLAVLLTLPVALPVGQLLELAARPGRLRERVLELARGGGDPYSDLSKGVLRCRTVEDVLTPLEDCFMLDASTVLDFGVLASIMQSGHTRIPVYEEERSNIVDMLYLKDLAFVDPEDCTPLSTITRFYNHPLHFVFNDTKLDAVLEEFKRGKSHLAIVQKVNNEGEGDPFYEVLGLVTLEDVIEEIIRSEILDESEDYRDTVVKRKPASLMAPLKRKEEFSLFKVSDDEYKVTISPQLLLATQRFLSREVDVFSPLRISEKVLLHLLKHPSVNQEVRFDESNRLATHHYLYQRSQPVDYFILILQGRVEVEIGKEGLKFENGAFTYYGVSALTVPSSVHQSPVSSLQPIRHDLQPDPGDGTHSSAYCPDYTVRALSDLQLIKVTRLQYLNALLATRAQNLPQSPENTDLQVIPGSQTRLLGEKTTTAAGSSHSRPGVPVEGSPGRNPGV
B2: native CNNM4 (endogenous, human cell lines) (protein, UniProt Q6P4Q7 1-775)
chain: MAPVGGGGRPVGGPARGRLLLAAPVLLVLLWALGARGQGSPQQGTIVGMRLASCNKSCGTNPDGIIFVSEGSTVNLRLYGYSLGNISSNLISFTEVDDAETLHKSTSCLELTKDLVVQQLVNVSRGNTSGVLVVLTKFLRRSESMKLYALCTRAQPDGPWLKWTDKDSLLFMVEEPGRFLPLWLHILLITVLLVLSGIFSGLNLGLMALDPMELRIVQNCGTEKERRYARKIEPIRRKGNYLLCSLLLGNVLVNTSLTILLDNLIGSGLMAVASSTIGIVIFGEILPQALCSRHGLAVGANTILLTKFFMLLTFPLSFPISKLLDFFLGQEIRTVYNREKLMEMLKVTEPYNDLVKEELNMIQGALELRTKTVEDIMTQLQDCFMIRSDAILDFNTMSEIMESGYTRIPVFEDEQSNIVDILYVKDLAFVDPDDCTPLKTITRFYNHPVHFVFHDTKLDAMLEEFKKGKSHLAIVQKVNNEGEGDPFYEVLGLVTLEDVIEEIIKSEILDESDMYTDNRSRKRVSEKNKRDFSAFKDADNELKVKISPQLLLAAHRFLATEVSQFSPSLISEKILLRLLKYPDVIQELKFDEHNKYYARHYLYTRNKPADYFILILQGKVEVEAGKENMKFETGAFSYYGTMALTSVPSDRSPAHPTPLSRSASLSYPDRTDVSTAATLAGSSNQFGSSVLGQYISDFSVRALVDLQYIKITRQQYQNGLLASRMENSPQFPIDGCTTHMENLAEKSELPVVDETTTLLNERNSLLHKASHENAI
B3: PTP4A1 (PRL-1), endogenous (protein, UniProt Q93096 1-173)
chain: MARMNRPAPVEVTYKNMRFLITHNPTNATLNKFIEELKKYGVTTIVRVCEATYDTTLVEKEGIHVLDWPFDDGAPPSNQIVDDWLSLVKIKFREEPGCCIAVHCVAGLGRAPVLVALALIEGGMKYEDAVQFIRQKRRGAFNSKQLLYLEKYRPKMRLRFKDSNGHRNNCCIQ
B4: ARL15, endogenous (protein, UniProt Q9NXU5 1-204)
chain: MSDLRITEAFLYMDYLCFRALCCKGPPPARPEYDLVCIGLTGSGKTSLLSKLCSESPDNVVSTTGFSIKAVPFQNAILNVKELGGADNIRKYWSRYYQGSQGVIFVLDSASSEDDLEAARNELHSALQHPQLCTLPFLILANHQDKPAARSVQEIKKYFELEPLARGKRWILQPCSLDDMDALKDSFSQLINLLEEKDHEAVRM

These binders were tested against FLAG-tagged mouse TRPM7 of the LTRPC7 cell line (293-TRPM7 cells) (mouse) (UniProt Q923J1) (assay: affinity purification with mass spectrometry; FLAG-TRPM7 immunoprecipitated overnight with M2 FLAG-agarose from LTRPC7 cells grown without tetracycline; lysis buffer 50 mM TRIS (pH 7.4), 150 mM NaCl, 1% Igepal 630; washed with PBS with 1% Tween-20; HEK-293T cells as negative control; 2 biological replicates).

Binder | binding
B1 | binds
B2 | binds
B3 | binds
B4 | binds

No constants are given. Whether binding was seen depends on the method and setting. In cells and extracts the contact can be indirect. A yes stands for co-enrichment or nearness to the bait. Other partners may have been found.
